PubChem BioAssay AID1224830, NIAID – 2016

Test: 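Host factors that control LPS-induced TNF expression in human macrophages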 (primary screen)
Cell system: human THP-1 monocytic leukaemia cells, TNF dual-luciferase reporter clone, PMA-differentiated to macrophage-like cells
Reagent: siRNA pool against human genes, 50 nM
Time to read-out: LPS for 4 h, given about 3 days after siRNA transfection
Treatment: bacterial LPS (TLR4 ligand), 10 ng/ml
Detection: 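Ratio of firefly to renilla light, scaled to the plate median and expressed as a robust z-score per replicate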
Scale: TNF reporter robust z-score: higher = stronger TNF reporter response to LPS
Active means: 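a well is active when its z-score exceeds 2.8 or falls below -1.5; control wells carry no call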
The deposit covers about 18,000 reagents; below is a part drawn at random. Of all reagents, about 2,900 (16%) are marked active. 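Calls are made per well; low scores hint the gene aids the LPS response, high scores that it dampens it.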 Unmarked entries are inactive. Repeated entries: four replicate wells of each siRNA pool.

Silencing of MBIP (MAP3K12 binding inhibitory protein 1) came out at: TNF reporter robust z-score -0.98.
Silencing of MBIP (MAP3K12 binding inhibitory protein 1) resulted in: TNF reporter robust z-score -0.2.
Depletion of MBIP (MAP3K12 binding inhibitory protein 1) resulted in: TNF reporter robust z-score -0.67.
For MBIP (MAP3K12 binding inhibitory protein 1), the entry reads TNF reporter robust z-score -0.28.
Knock-down of MYO16 (myosin XVI) came out at: TNF reporter robust z-score 0.13.
MYO16 (myosin XVI) scored TNF reporter robust z-score -0.68.
Depletion of MYO16 (myosin XVI) resulted in: TNF reporter robust z-score -0.53.
Against MYO16 (myosin XVI), the entry reads TNF reporter robust z-score -0.8.
With knock-down of SIAH1 (siah E3 ubiquitin protein ligase 1), the screen gave TNF reporter robust z-score -1.
With knock-down of SIAH1 (siah E3 ubiquitin protein ligase 1) the results were TNF reporter robust z-score -0.49.
For SIAH1 (siah E3 ubiquitin protein ligase 1), the values are TNF reporter robust z-score 0.06.
Silencing of SIAH1 (siah E3 ubiquitin protein ligase 1) came out at: TNF reporter robust z-score 0.04.
With knock-down of RERE (arginine-glutamic acid dipeptide repeats), the record shows TNF reporter robust z-score -2.16 (active).
Depletion of RERE (arginine-glutamic acid dipeptide repeats) resulted in: TNF reporter robust z-score -1.96 (active).
RERE (arginine-glutamic acid dipeptide repeats) scored TNF reporter robust z-score -1.83 (active).
Depletion of RERE (arginine-glutamic acid dipeptide repeats) gave: TNF reporter robust z-score -1.43.
For BCL2L15 (BCL2 like 15) the deposit lists TNF reporter robust z-score -0.16.
Against BCL2L15 (BCL2 like 15), the values are TNF reporter robust z-score 0.06.
BCL2L15 (BCL2 like 15) scored TNF reporter robust z-score -0.33.
BCL2L15 (BCL2 like 15) gave TNF reporter robust z-score 0.67.
With knock-down of ERVFRD-1 (endogenous retrovirus group FRD member 1, envelope), the record shows TNF reporter robust z-score -0.08.
ERVFRD-1 (endogenous retrovirus group FRD member 1, envelope) showed TNF reporter robust z-score -0.3.
For ERVFRD-1 (endogenous retrovirus group FRD member 1, envelope), the entry reads TNF reporter robust z-score 0.08.
Silencing of ERVFRD-1 (endogenous retrovirus group FRD member 1, envelope) came out at: TNF reporter robust z-score -0.68.
With knock-down of SCRIB (scribble planar cell polarity protein), the record shows TNF reporter robust z-score 0.81.
Depletion of SCRIB (scribble planar cell polarity protein) resulted in: TNF reporter robust z-score 1.56.
SCRIB (scribble planar cell polarity protein) gave TNF reporter robust z-score 0.3.
Knock-down of SCRIB (scribble planar cell polarity protein) gave: TNF reporter robust z-score 0.43.
With knock-down of RBM18 (RNA binding motif protein 18), the screen gave TNF reporter robust z-score -1.04.
RBM18 (RNA binding motif protein 18) showed TNF reporter robust z-score -0.14.
RBM18 (RNA binding motif protein 18) scored TNF reporter robust z-score -1.
Knock-down of RBM18 (RNA binding motif protein 18) came out at: TNF reporter robust z-score -1.55 (active).
After knock-down of MAD2L2 (mitotic arrest deficient 2 like 2), the screen gave TNF reporter robust z-score -2.01 (active).
For MAD2L2 (mitotic arrest deficient 2 like 2), the values are TNF reporter robust z-score -1.64 (active).
After knock-down of MAD2L2 (mitotic arrest deficient 2 like 2), the screen gave TNF reporter robust z-score -1.82 (active).
NDUFB7 (NADH:ubiquinone oxidoreductase subunit B7) gave TNF reporter robust z-score -0.7.
NDUFB7 (NADH:ubiquinone oxidoreductase subunit B7) showed TNF reporter robust z-score 0.45.
Knock-down of NDUFB7 (NADH:ubiquinone oxidoreductase subunit B7) resulted in: TNF reporter robust z-score 0.43.
Against NDUFB7 (NADH:ubiquinone oxidoreductase subunit B7), the entry reads TNF reporter robust z-score 1.22.
Silencing of LMOD3 (leiomodin 3) came out at: TNF reporter robust z-score 2.26.
With knock-down of LMOD3 (leiomodin 3) the results were TNF reporter robust z-score 3.07 (active).
LMOD3 (leiomodin 3) scored TNF reporter robust z-score 2.
After knock-down of LMOD3 (leiomodin 3), the screen gave TNF reporter robust z-score 2.57.
Silencing of GPAA1 (glycosylphosphatidylinositol anchor attachment 1) came out at: TNF reporter robust z-score -0.32.
Depletion of GPAA1 (glycosylphosphatidylinositol anchor attachment 1) came out at: TNF reporter robust z-score 0.32.
For GPAA1 (glycosylphosphatidylinositol anchor attachment 1), the values are TNF reporter robust z-score 0.43.
With knock-down of GPAA1 (glycosylphosphatidylinositol anchor attachment 1), the record shows TNF reporter robust z-score 0.81.

No new results follow: 5 of the entries above.
MAD2L2 (mitotic arrest deficient 2 like 2) | TNF reporter robust z-score: -2.01 (active)
MAD2L2 (mitotic arrest deficient 2 like 2) | TNF reporter robust z-score: -1.64 (active)
MAD2L2 (mitotic arrest deficient 2 like 2) | TNF reporter robust z-score: -1.82 (active)
NDUFB7 (NADH:ubiquinone oxidoreductase subunit B7) | TNF reporter robust z-score: -0.7
NDUFB7 (NADH:ubiquinone oxidoreductase subunit B7) | TNF reporter robust z-score: 0.45
